According to PMC6543673:
For at least one entry, the source does not settle the construct or the ends of the probe. Negatives hold for the conditions tested.

Tested on: GST-MdFLP (FOUR LIPS, R2R3-MYB)
Test: EMSA
Conditions: Not stated, EMSA per Xie et al. and Thermo Scientific kit instructions, biotin-labeled probes, recombinant protein, protein details: GST (pGEX4T-1), label: biotin
[1] = outcompeted by 10- and 20-fold unlabeled probe

Row | Sequence | binding result [1] | binding result
1 | GCTGTGGCCGCTGCCGGAGCCGGGGCGGAAGATGACAGAG (double strand) [MdPIN3 promoter probe] | binds | –
2 | GCTGTGGCCGCTGCCGGTGCCGGGGCGGAAGATGACAGAG (double strand) [MdPIN3 mutant probe] | – | no binding
3 | TTCTGAGACCCGAAAAGCCGAGTGTGTTGGGGACTGTAAG (double strand) [MdPIN10 promoter probe] | binds | –
